# From PubChem BioAssay AID624297 (National Center for Advancing Translational Sciences (NCATS), 2012)
# Screen size: about 340,000 compounds; about 6,200 (1.8%) were called active. The inconclusive results got no clear call from the source; some entries with a clear call stand among them for comparison. Calls come from the whole dose curve; as a rule, active = well fitted activation curve with a large enough effect; inconclusive = small, poorly fitted or top-dose-only effect; inactive = no such curve, though single readings can be large or run the other way. A potency beside an inconclusive call is a rough fit, not a confirmed value.
# Test: A quantitative high throughput screen for small molecules that induce DNA re-replication in SW480 colon adenocarcinoma cells. For re-replication activation: % of control where 0% means no effect. Note: nearly all actives have a fitted effect of over 55% in size.
# Details: Hoechst DNA content imaging, 48 h; re-replication activation: at 46.1 µM (top of the series) unless noted
# Outline: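 Image-based DNA-content assay: after two days of treatment, nuclei were labelled with the DNA dye Hoechst and imaged, and hits were compounds raising the count of nuclei showing high fluorescence intensity.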
# Potency is the fitted concentration of half-maximal effect.
Compound,Potency,re-replication activation
CCOc1cc(/C=N/Nc2ccccc2Cl)ccc1OCC(=O)O,"inconclusive: 2.59 µM [activator, full curve, poor fit]",–
COc1cc(/C=C2\C(=O)ON=C2c2ccc(Cl)cc2)ccc1O,"inconclusive: 18.4 µM [activator, single point]",–
c1cc(C2CCN(Cc3nc(-c4ccc5c(c4)OCO5)no3)CC2)ccn1,"inconclusive: 4.11 µM [activator, full curve]",–
CCc1ccc(CN/C=C/C(=O)c2ccc(Br)cc2)cc1,inactive,–
COc1ccccc1-c1nnc(SC(C)C(=O)Nc2ccc(C(N)=O)cc2)o1 (stereo not given),inactive,–
CC(C)C(C)N(Cc1ccc(C(=O)O)cc1)C(=O)c1ccc2ccccc2n1 (stereo not given),inactive,–
COc1ccc(C)cc1S(=O)(=O)N1c2ccccc2CC1C (stereo not given),"inconclusive: 18.4 µM [activator, single point]",–
Cc1cccn2c(=O)c(C(=O)NC3CC(C)CC(C)(C)C3)c(O)nc12 (stereo not given),inactive,–
CSCCC(NS(=O)(=O)c1ccc(C)cc1C)C(=O)Nc1cccnc1 (stereo not given),inactive,–
CCCCOc1ccc(CSC2=NCCN2)cc1[N+](=O)[O-],"inconclusive: 29.1 µM [activator, single point]",–
CC(=O)c1cccc(S(=O)(=O)NC2CC2)c1,"inconclusive: 16.4 µM [activator, single point]",–
Cc1cn(C2CCCCC2)c(=O)n(-c2ccccc2)c1=O,inactive,–
O=C(N/N=C/c1ccccc1)c1ccc(CN2C(=O)c3cccc4cccc2c34)cc1,"inconclusive: 23.1 µM [activator, partial curve, poor fit]",–
Clc1ccc(-n2nnnc2-c2cnc(-c3ccncc3)nc2-c2cccs2)cc1,"inconclusive: 29.1 µM [activator, single point]",–
Cc1ccccc1Nc1nnc(SCC2CCCCO2)s1 (stereo not given),inactive,–
CCC(=O)Nc1ccc2c(c1)nc1n2CCN(CCOC)C1,–,inconclusive: 32.1% [activator]
CCCCCCC1CC(CCc2nc(=S)[nH][nH]2)C(=O)O1 (stereo not given),inactive,–
COc1ccc(S(=O)(=O)Cc2ccc(C(=O)NCCCN3CCc4ccccc4C3)o2)cc1,"inconclusive: 7.31 µM [activator, partial curve, poor fit]",–
CC1CC(C)CN(C(=O)C2CCCN(S(=O)(=O)c3cnc[nH]3)C2)C1 (stereo not given),inactive,–
CCOC(=O)c1c(CN(CC)CC)n(C)c2cc(Br)c(O)cc12,"inconclusive: 5.8 µM [activator, partial curve, poor fit]",–
N#CC(CCc1ccccc1[N+](=O)[O-])(CCc1ccccc1[N+](=O)[O-])C(N)=O,inactive,–
N#Cc1cnc(NOCc2ccc(Cl)cc2)nc1,inactive,–
CCOc1cc(N2CCOCC2)c(OCC)cc1NC(=O)CN1CCCC(C)C1 (stereo not given),"inconclusive: 20.6 µM [activator, single point]",–
c1ccc(Oc2cccc(OCCCCN3CCCC3)c2)cc1,"inconclusive: 23.1 µM [activator, single point]",–

Compound,Potency,re-replication activation
Cc1ccc(C2=NNC(=O)C(c3ccc(Cl)cc3)C2)cc1 (stereo not given),inactive,–
CC(=O)Nc1sc2c(c1C(N)=O)CCN(Cc1ccccc1)C2,"inconclusive: 16.4 µM [activator, partial curve]",–
Cc1ccc(-n2[nH]c(C)c(C=Nc3ccc(C)cn3)c2=O)cc1,inactive,–
O=C(N/N=C/c1c[nH]c2ccccc12)c1ccccc1Cl,inactive,–
O=C(CC1SCCNC1=O)Nc1ccc(Cl)c(Cl)c1 (stereo not given),inactive,–
COc1cc(C(C)=O)ccc1OCC(=O)OCCCOC(=O)COc1ccc(C(C)=O)cc1OC,inactive,–
O=C(Nc1ccccc1-c1ccccc1)NC1CC2CCCC(C1)N2Cc1ccc(F)cc1 (stereo not given),"inconclusive: 23.1 µM [activator, single point]",–
CN1CCN(S(=O)(=O)c2ccc(Cl)s2)CC1,inactive,–
COC(=O)c1ccc(/C=N/NC(=O)c2ccc3nc[nH]c3c2)cc1,–,inconclusive: -32.3% [activator]
Cn1ncc(C#N)c1/N=C/N(Cc1ccccc1)Cc1ccccc1,"inconclusive: 11.2 µM [activator, partial curve]",–
O=C(COc1cc(F)ccc1[N+](=O)[O-])NCCCc1ccccc1,–,inconclusive: -21.3% [activator]
CCCCNc1nc2ccccc2n1CC(=O)N1CCc2ccccc2C1,inactive,–
COc1ccc2c(c1)O[C@H]1c3ccc(O)cc3OC[C@@H]21,"inconclusive: 1.16 µM [activator, partial curve, poor fit]",–
COc1ccccc1N1CCN(C(=O)C(Sc2ccccc2)c2ccccc2)CC1 (stereo not given),"inconclusive: 16.4 µM [activator, single point]",–
CNC(=S)N(CCc1c(C)[nH]c2ccc(OC)cc12)Cc1ccco1,"inconclusive: 2.31 µM [activator, partial curve, poor fit]",–
O=C(CCCl)N(Cc1nc2ccccc2c(=O)[nH]1)Cc1cccs1,inactive,–
O=C(OCc1ccccc1)C1=[N+]([O-])OC(C(=O)OCc2ccccc2)C1c1c[nH]c2ccccc12 (stereo not given),"inconclusive: 29.1 µM [activator, single point]",–
CCN(CC(=O)NCc1ccc(Cl)cc1)C(=O)c1ccc(C#N)cc1,"inconclusive: 29.1 µM [activator, single point]",–
CCCc1[nH]nc2c1C(c1cccc(OC(=O)c3ccco3)c1)C(C#N)=C(N)O2 (stereo not given),"inconclusive: 18.4 µM [activator, single point]",–
Cc1cccc2cc(CN(Cc3nnnn3C3CCCC3)C3CCCCC3)c(=O)[nH]c12,"inconclusive: 1.84 µM [activator, full curve, poor fit]",–
O=C(Nc1ccc2snnc2c1)N1CCCCC1,"inconclusive: 0.116 µM [activator, full curve, poor fit]",–
O=C(NC(=S)Nc1ccccc1N1CCCCC1)c1ccc(-c2cccc([N+](=O)[O-])c2)o1,inactive,–
COc1ccc(NC(=O)CN(C)C(=O)c2cccc(S(=O)(=O)Nc3ccc(F)cc3)c2)cc1,inactive,–
OCCN1CCN(Cc2cc(Cl)c3cccnc3c2O)CC1,active: 3.26 µM,–

Compound,Potency,re-replication activation
NS(=O)(=O)c1ccc(Nc2nc(-c3ccc(O)cc3)cs2)cc1,"inconclusive: 29.1 µM [activator, single point]",–
COc1ccc(C2=NOC(C(=O)Nc3cccnc3Cl)C2)cc1 (stereo not given),"inconclusive: 10.3 µM [activator, single point]",–
S=c1[nH]cc(Oc2ccc(Cl)cc2Cl)c(=S)[nH]1,"inconclusive: 29.1 µM [activator, single point]",–
CCN(CC)CCN(C(=O)CCS(=O)(=O)c1ccccc1)c1nc2cc(C)cc(C)c2s1,inactive,–
CCOC(=O)C1CCN(C(c2cc3c(C)ccc(C)c3[nH]c2=O)c2nnnn2C2CCCCC2)CC1 (stereo not given),inactive,–
COCCn1c(-c2ccc(OC)cc2)cnc1N,"inconclusive: 23.1 µM [activator, partial curve, poor fit]",–
CC(C)N1CCN(Cc2cc3ccccc3[nH]2)CC1CCO (stereo not given),"inconclusive: 29.1 µM [activator, single point]",–
Cc1oc(-c2ccc(Cl)cc2)nc1CN1CCCC(C(=O)NCc2ccco2)C1 (stereo not given),inactive,–
COc1cccc(-c2cc3nc(-c4ccccc4)cc(N4CCCC(O)C4)n3n2)c1 (stereo not given),active: 14.6 µM,–
Cc1c(NC(=O)c2ccc(Br)o2)c(=O)n(-c2ccccc2)n1C,"inconclusive: 25.9 µM [activator, single point]",–
Cc1cccc(/C=C/C(=O)c2ccc([N+](=O)[O-])o2)c1,"inconclusive: 2.91 µM [activator, partial curve, poor fit]",–
CN1CCN(C2CCN(c3ccc(Nc4nnc(Cl)c(Nc5ccccc5S(C)(=O)=O)n4)c(OC(CF)CF)c3)CC2)CC1,"inconclusive: 1.84 µM [activator, partial curve, poor fit]",–
O=C(CCN1C(=O)c2ccccc2S1(=O)=O)Nc1ccc(F)c(F)c1F,inactive,–
O=C(/C=C/c1ccnc2ccccc12)c1cccs1,"inconclusive: 20.6 µM [activator, single point]",–
CC(=O)c1ccc(NC(=O)CN2CCC(C(=O)c3ccc4c(c3)OCCO4)CC2)cc1,"inconclusive: 6.31 µM [activator, partial curve, poor fit]",–
COC(=O)N/N=C/c1cc(Cl)cc(Cl)c1OCc1ccc(F)cc1,"inconclusive: 16.4 µM [activator, single point]",–
Cc1ccc2c(c1)[C@H]1[C@H](CO2)[C@H](c2ccccc2)[C@]2(C)C(=O)N(Cc3ccco3)CC(=O)N12,"inconclusive: 11.6 µM [activator, partial curve]",–
C/C(Cn1nnc([N+](=O)[O-])n1)=N\NC(=O)c1ccc(C)cc1,"inconclusive: 20.6 µM [activator, single point]",–
CCOc1cccc(/C=N/NC(=O)c2cc(-c3cccn3C)n[nH]2)c1O,"inconclusive: 4.61 µM [activator, full curve, poor fit]",–
CCOC(=O)/C=c1\s/c(=C\c2ccc(-c3ccccc3)cc2)c(=O)n1CC(=O)NCc1ccc2c(c1)OCO2,"inconclusive: 3.66 µM [activator, single point]",–
COc1ccc(C(CNC(=O)c2cccc(S(=O)(=O)Nc3ccc(F)cc3)c2)N2CCCC2)cc1 (stereo not given),"inconclusive: 16.4 µM [activator, partial curve, poor fit]",–
O=C(O)/C=C/C(=O)N(CC1CCCO1)C1CC(=O)N(c2c(Cl)cccc2Cl)C1=O (stereo not given),"inconclusive: 13 µM [activator, single point]",–
